This note sets out measurements from publication PMC11516111.

Amino acid sequences for entries named in this document (tags omitted). Residues count along the entry.
UniProt P35869, residues 11-848: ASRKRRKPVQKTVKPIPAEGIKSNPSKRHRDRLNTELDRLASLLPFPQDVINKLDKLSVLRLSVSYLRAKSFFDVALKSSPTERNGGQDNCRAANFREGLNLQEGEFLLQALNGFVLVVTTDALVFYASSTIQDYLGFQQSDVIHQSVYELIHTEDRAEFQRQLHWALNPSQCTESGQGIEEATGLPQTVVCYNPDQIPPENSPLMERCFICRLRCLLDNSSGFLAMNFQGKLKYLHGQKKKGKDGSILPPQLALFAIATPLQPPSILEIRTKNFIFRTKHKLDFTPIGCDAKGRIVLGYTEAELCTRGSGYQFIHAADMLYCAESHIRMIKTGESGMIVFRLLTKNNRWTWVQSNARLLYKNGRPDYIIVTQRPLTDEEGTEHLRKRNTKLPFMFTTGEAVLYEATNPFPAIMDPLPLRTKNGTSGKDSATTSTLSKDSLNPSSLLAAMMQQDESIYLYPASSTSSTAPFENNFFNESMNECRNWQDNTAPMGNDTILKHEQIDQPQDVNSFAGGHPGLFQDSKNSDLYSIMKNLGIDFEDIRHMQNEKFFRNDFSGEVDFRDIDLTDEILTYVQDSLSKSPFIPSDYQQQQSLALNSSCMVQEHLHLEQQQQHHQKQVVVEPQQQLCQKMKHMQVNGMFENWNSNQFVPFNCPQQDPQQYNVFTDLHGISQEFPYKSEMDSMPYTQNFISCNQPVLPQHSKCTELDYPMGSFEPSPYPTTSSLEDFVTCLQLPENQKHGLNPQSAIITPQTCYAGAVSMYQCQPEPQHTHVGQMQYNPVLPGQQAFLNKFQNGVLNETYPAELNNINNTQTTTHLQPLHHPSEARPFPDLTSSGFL
UniProt P27540: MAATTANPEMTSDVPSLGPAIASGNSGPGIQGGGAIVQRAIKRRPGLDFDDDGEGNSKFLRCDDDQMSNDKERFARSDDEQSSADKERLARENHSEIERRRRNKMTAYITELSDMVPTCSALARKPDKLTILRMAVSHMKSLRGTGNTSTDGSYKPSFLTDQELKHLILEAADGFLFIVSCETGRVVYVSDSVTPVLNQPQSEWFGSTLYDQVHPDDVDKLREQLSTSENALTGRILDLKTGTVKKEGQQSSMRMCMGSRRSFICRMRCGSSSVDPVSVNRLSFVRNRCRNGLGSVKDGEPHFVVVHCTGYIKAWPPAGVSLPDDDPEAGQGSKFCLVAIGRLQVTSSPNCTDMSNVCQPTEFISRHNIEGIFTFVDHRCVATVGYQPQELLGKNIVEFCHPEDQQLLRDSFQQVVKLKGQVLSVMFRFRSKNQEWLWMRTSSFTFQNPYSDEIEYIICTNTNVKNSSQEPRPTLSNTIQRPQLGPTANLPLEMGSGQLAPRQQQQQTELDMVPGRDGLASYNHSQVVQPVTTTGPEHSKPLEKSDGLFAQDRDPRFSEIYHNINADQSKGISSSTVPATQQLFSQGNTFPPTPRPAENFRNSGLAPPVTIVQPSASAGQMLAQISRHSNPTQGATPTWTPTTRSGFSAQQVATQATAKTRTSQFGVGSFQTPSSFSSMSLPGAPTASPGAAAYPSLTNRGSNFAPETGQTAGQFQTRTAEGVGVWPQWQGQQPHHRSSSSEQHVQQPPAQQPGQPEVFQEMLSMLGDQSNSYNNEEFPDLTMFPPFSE

The target in assay [1] is aryl hydrocarbon receptor (AHR), endogenous in HeLa cells (human (endogenous in HeLa)) (UniProt P35869). As to the kind of experiment: co-IP; IP assays that compare SPHK2 and SPHK1 with AHR (Figure S3A,B); cells and precipitating antibody not told in the text shown.
The target is the same in assay [2]. As to the kind of experiment: co-IP; endogenous proteins; HeLa cytoplasmic and nuclear extracts, cells with or without TCDF (0.1 uM, 30 min) or ICZ; antibody to AHR, SPHK2 or ARNT on Protein G magnetic beads, 600-800 ug protein, 90 min at 4 C, washed with TBS; western blot. Background: Immunoblotting shows a protein as a band on a membrane.
The target in assay [3] is aryl hydrocarbon receptor nuclear translocator (ARNT), endogenous in HeLa cells (human (endogenous in HeLa)) (UniProt P27540). The assay is described as above.
The target in assay [4] is hAHR-FLAG (human AHR from pcDNA3-hAHR-FLAG) (human) (UniProt P35869). As to the kind of experiment: co-IP; COS-1 cells co-transfected with hAHR-FLAG and hSPHK2-HA WT or mutant, 48-72 h, TCDF 30 min, cytoplasmic/nuclear extract fractionation; equal protein on Anti-FLAG M2 magnetic beads 2 h at 4 C; western blot.

These are yes or no findings as the source states them, for the method shown. Binding seen in cells or lysates may run through a third protein. Some entries that bind do so weakly or less than the wild type. For some of these results: Sequences can lack the tags named with a protein.

B1: sphingosine kinase 2 (SPHK2), endogenous in HeLa cells (enzyme, UniProt Q9NRA0 1-654)
chain: MNGHLEAEEQQDQRPDQELTGSWGHGPRSTLVRAKAMAPPPPPLAASTPLLHGEFGSYPARGPRFALTLTSQALHIQRLRPKPEARPRGGLVPLAEVSGCCTLRSRSPSDSAAYFCIYTYPRGRRGARRRATRTFRADGAATYEENRAEAQRWATALTCLLRGLPLPGDGEITPDLLPRPPRLLLLVNPFGGRGLAWQWCKNHVLPMISEAGLSFNLIQTERQNHARELVQGLSLSEWDGIVTVSGDGLLHEVLNGLLDRPDWEEAVKMPVGILPCGSGNALAGAVNQHGGFEPALGLDLLLNCSLLLCRGGGHPLDLLSVTLASGSRCFSFLSVAWGFVSDVDIQSERFRALGSARFTLGTVLGLATLHTYRGRLSYLPATVEPASPTPAHSLPRAKSELTLTPDPAPPMAHSPLHRSVSDLPLPLPQPALASPGSPEPLPILSLNGGGPELAGDWGGAGDAPLSPDPLLSSPPGSPKAALHSPVSEGAPVIPPSSGLPLPTPDARVGASTCGPPDHLLPPLGTPLPPDWVTLEGDFVLMLAISPSHLGADLVAAPHARFDDGLVHLCWVRSGISRAALLRLFLAMERGSHFSLGCPQLGYAAARAFRLEPLTPRGVLTVDGEQVEYGPLQAQMHPGIGTLLTGPPGCPGREP
As to B1, the binding result in assay [1], in assay [2] and in assay [3] was “binds” each time.

B2: hSPHK2-HA L157A/L254V/L298G (triple LXXLL mutation) (enzyme, UniProt Q9NRA0 1-654)
chain: MNGHLEAEEQQDQRPDQELTGSWGHGPRSTLVRAKAMAPPPPPLAASTPLLHGEFGSYPARGPRFALTLTSQALHIQRLRPKPEARPRGGLVPLAEVSGCCTLRSRSPSDSAAYFCIYTYPRGRRGARRRATRTFRADGAATYEENRAEAQRWATAATCLLRGLPLPGDGEITPDLLPRPPRLLLLVNPFGGRGLAWQWCKNHVLPMISEAGLSFNLIQTERQNHARELVQGLSLSEWDGIVTVSGDGLLHEVVNGLLDRPDWEEAVKMPVGILPCGSGNALAGAVNQHGGFEPALGGDLLLNCSLLLCRGGGHPLDLLSVTLASGSRCFSFLSVAWGFVSDVDIQSERFRALGSARFTLGTVLGLATLHTYRGRLSYLPATVEPASPTPAHSLPRAKSELTLTPDPAPPMAHSPLHRSVSDLPLPLPQPALASPGSPEPLPILSLNGGGPELAGDWGGAGDAPLSPDPLLSSPPGSPKAALHSPVSEGAPVIPPSSGLPLPTPDARVGASTCGPPDHLLPPLGTPLPPDWVTLEGDFVLMLAISPSHLGADLVAAPHARFDDGLVHLCWVRSGISRAALLRLFLAMERGSHFSLGCPQLGYAAARAFRLEPLTPRGVLTVDGEQVEYGPLQAQMHPGIGTLLTGPPGCPGREP
Regarding B2, in assay [4], the binding entry was “binds”.

B3: hSPHK2-HA L157A (enzyme, UniProt Q9NRA0 1-654)
chain: MNGHLEAEEQQDQRPDQELTGSWGHGPRSTLVRAKAMAPPPPPLAASTPLLHGEFGSYPARGPRFALTLTSQALHIQRLRPKPEARPRGGLVPLAEVSGCCTLRSRSPSDSAAYFCIYTYPRGRRGARRRATRTFRADGAATYEENRAEAQRWATAATCLLRGLPLPGDGEITPDLLPRPPRLLLLVNPFGGRGLAWQWCKNHVLPMISEAGLSFNLIQTERQNHARELVQGLSLSEWDGIVTVSGDGLLHEVLNGLLDRPDWEEAVKMPVGILPCGSGNALAGAVNQHGGFEPALGLDLLLNCSLLLCRGGGHPLDLLSVTLASGSRCFSFLSVAWGFVSDVDIQSERFRALGSARFTLGTVLGLATLHTYRGRLSYLPATVEPASPTPAHSLPRAKSELTLTPDPAPPMAHSPLHRSVSDLPLPLPQPALASPGSPEPLPILSLNGGGPELAGDWGGAGDAPLSPDPLLSSPPGSPKAALHSPVSEGAPVIPPSSGLPLPTPDARVGASTCGPPDHLLPPLGTPLPPDWVTLEGDFVLMLAISPSHLGADLVAAPHARFDDGLVHLCWVRSGISRAALLRLFLAMERGSHFSLGCPQLGYAAARAFRLEPLTPRGVLTVDGEQVEYGPLQAQMHPGIGTLLTGPPGCPGREP
Turning to B3, in assay [4], the binding entry is “binds”.

B4: hSPHK2-HA L254V (enzyme, UniProt Q9NRA0 1-654)
chain: MNGHLEAEEQQDQRPDQELTGSWGHGPRSTLVRAKAMAPPPPPLAASTPLLHGEFGSYPARGPRFALTLTSQALHIQRLRPKPEARPRGGLVPLAEVSGCCTLRSRSPSDSAAYFCIYTYPRGRRGARRRATRTFRADGAATYEENRAEAQRWATALTCLLRGLPLPGDGEITPDLLPRPPRLLLLVNPFGGRGLAWQWCKNHVLPMISEAGLSFNLIQTERQNHARELVQGLSLSEWDGIVTVSGDGLLHEVVNGLLDRPDWEEAVKMPVGILPCGSGNALAGAVNQHGGFEPALGLDLLLNCSLLLCRGGGHPLDLLSVTLASGSRCFSFLSVAWGFVSDVDIQSERFRALGSARFTLGTVLGLATLHTYRGRLSYLPATVEPASPTPAHSLPRAKSELTLTPDPAPPMAHSPLHRSVSDLPLPLPQPALASPGSPEPLPILSLNGGGPELAGDWGGAGDAPLSPDPLLSSPPGSPKAALHSPVSEGAPVIPPSSGLPLPTPDARVGASTCGPPDHLLPPLGTPLPPDWVTLEGDFVLMLAISPSHLGADLVAAPHARFDDGLVHLCWVRSGISRAALLRLFLAMERGSHFSLGCPQLGYAAARAFRLEPLTPRGVLTVDGEQVEYGPLQAQMHPGIGTLLTGPPGCPGREP
Take B4: the binding entry in assay [4] is listed as “binds”.

B5: hSPHK2-HA L254A (enzyme, UniProt Q9NRA0 1-654)
chain: MNGHLEAEEQQDQRPDQELTGSWGHGPRSTLVRAKAMAPPPPPLAASTPLLHGEFGSYPARGPRFALTLTSQALHIQRLRPKPEARPRGGLVPLAEVSGCCTLRSRSPSDSAAYFCIYTYPRGRRGARRRATRTFRADGAATYEENRAEAQRWATALTCLLRGLPLPGDGEITPDLLPRPPRLLLLVNPFGGRGLAWQWCKNHVLPMISEAGLSFNLIQTERQNHARELVQGLSLSEWDGIVTVSGDGLLHEVANGLLDRPDWEEAVKMPVGILPCGSGNALAGAVNQHGGFEPALGLDLLLNCSLLLCRGGGHPLDLLSVTLASGSRCFSFLSVAWGFVSDVDIQSERFRALGSARFTLGTVLGLATLHTYRGRLSYLPATVEPASPTPAHSLPRAKSELTLTPDPAPPMAHSPLHRSVSDLPLPLPQPALASPGSPEPLPILSLNGGGPELAGDWGGAGDAPLSPDPLLSSPPGSPKAALHSPVSEGAPVIPPSSGLPLPTPDARVGASTCGPPDHLLPPLGTPLPPDWVTLEGDFVLMLAISPSHLGADLVAAPHARFDDGLVHLCWVRSGISRAALLRLFLAMERGSHFSLGCPQLGYAAARAFRLEPLTPRGVLTVDGEQVEYGPLQAQMHPGIGTLLTGPPGCPGREP
Consider B5, for which, in assay [4], the binding result is “binds”.

B6: hSPHK2-HA L298A (enzyme, UniProt Q9NRA0 1-654)
chain: MNGHLEAEEQQDQRPDQELTGSWGHGPRSTLVRAKAMAPPPPPLAASTPLLHGEFGSYPARGPRFALTLTSQALHIQRLRPKPEARPRGGLVPLAEVSGCCTLRSRSPSDSAAYFCIYTYPRGRRGARRRATRTFRADGAATYEENRAEAQRWATALTCLLRGLPLPGDGEITPDLLPRPPRLLLLVNPFGGRGLAWQWCKNHVLPMISEAGLSFNLIQTERQNHARELVQGLSLSEWDGIVTVSGDGLLHEVLNGLLDRPDWEEAVKMPVGILPCGSGNALAGAVNQHGGFEPALGADLLLNCSLLLCRGGGHPLDLLSVTLASGSRCFSFLSVAWGFVSDVDIQSERFRALGSARFTLGTVLGLATLHTYRGRLSYLPATVEPASPTPAHSLPRAKSELTLTPDPAPPMAHSPLHRSVSDLPLPLPQPALASPGSPEPLPILSLNGGGPELAGDWGGAGDAPLSPDPLLSSPPGSPKAALHSPVSEGAPVIPPSSGLPLPTPDARVGASTCGPPDHLLPPLGTPLPPDWVTLEGDFVLMLAISPSHLGADLVAAPHARFDDGLVHLCWVRSGISRAALLRLFLAMERGSHFSLGCPQLGYAAARAFRLEPLTPRGVLTVDGEQVEYGPLQAQMHPGIGTLLTGPPGCPGREP
On to B6, for which, in assay [4], the binding entry is reported as “binds”.

B7: hSPHK2-HA L298G (enzyme, UniProt Q9NRA0 1-654)
chain: MNGHLEAEEQQDQRPDQELTGSWGHGPRSTLVRAKAMAPPPPPLAASTPLLHGEFGSYPARGPRFALTLTSQALHIQRLRPKPEARPRGGLVPLAEVSGCCTLRSRSPSDSAAYFCIYTYPRGRRGARRRATRTFRADGAATYEENRAEAQRWATALTCLLRGLPLPGDGEITPDLLPRPPRLLLLVNPFGGRGLAWQWCKNHVLPMISEAGLSFNLIQTERQNHARELVQGLSLSEWDGIVTVSGDGLLHEVLNGLLDRPDWEEAVKMPVGILPCGSGNALAGAVNQHGGFEPALGGDLLLNCSLLLCRGGGHPLDLLSVTLASGSRCFSFLSVAWGFVSDVDIQSERFRALGSARFTLGTVLGLATLHTYRGRLSYLPATVEPASPTPAHSLPRAKSELTLTPDPAPPMAHSPLHRSVSDLPLPLPQPALASPGSPEPLPILSLNGGGPELAGDWGGAGDAPLSPDPLLSSPPGSPKAALHSPVSEGAPVIPPSSGLPLPTPDARVGASTCGPPDHLLPPLGTPLPPDWVTLEGDFVLMLAISPSHLGADLVAAPHARFDDGLVHLCWVRSGISRAALLRLFLAMERGSHFSLGCPQLGYAAARAFRLEPLTPRGVLTVDGEQVEYGPLQAQMHPGIGTLLTGPPGCPGREP
For B7, the binding result in assay [4] is reported as “binds”.

B8: hSPHK2-HA WT (HA tagged human SPHK2) (enzyme, UniProt Q9NRA0 1-654)
chain: MNGHLEAEEQQDQRPDQELTGSWGHGPRSTLVRAKAMAPPPPPLAASTPLLHGEFGSYPARGPRFALTLTSQALHIQRLRPKPEARPRGGLVPLAEVSGCCTLRSRSPSDSAAYFCIYTYPRGRRGARRRATRTFRADGAATYEENRAEAQRWATALTCLLRGLPLPGDGEITPDLLPRPPRLLLLVNPFGGRGLAWQWCKNHVLPMISEAGLSFNLIQTERQNHARELVQGLSLSEWDGIVTVSGDGLLHEVLNGLLDRPDWEEAVKMPVGILPCGSGNALAGAVNQHGGFEPALGLDLLLNCSLLLCRGGGHPLDLLSVTLASGSRCFSFLSVAWGFVSDVDIQSERFRALGSARFTLGTVLGLATLHTYRGRLSYLPATVEPASPTPAHSLPRAKSELTLTPDPAPPMAHSPLHRSVSDLPLPLPQPALASPGSPEPLPILSLNGGGPELAGDWGGAGDAPLSPDPLLSSPPGSPKAALHSPVSEGAPVIPPSSGLPLPTPDARVGASTCGPPDHLLPPLGTPLPPDWVTLEGDFVLMLAISPSHLGADLVAAPHARFDDGLVHLCWVRSGISRAALLRLFLAMERGSHFSLGCPQLGYAAARAFRLEPLTPRGVLTVDGEQVEYGPLQAQMHPGIGTLLTGPPGCPGREP
For B8, the binding result in assay [4] is listed as “binds”.
